# From the supplement of paper PMC3334620
# The full ranking holds about 33,000 sequences; the median of “E-score (-0.5 to 0.5)” is about -8e-05, and the highest 2% start at about 0.23. This is one part of the list.
# Molecular target: T1, Nrg2 (UniProt P38082)
# T1 sequence: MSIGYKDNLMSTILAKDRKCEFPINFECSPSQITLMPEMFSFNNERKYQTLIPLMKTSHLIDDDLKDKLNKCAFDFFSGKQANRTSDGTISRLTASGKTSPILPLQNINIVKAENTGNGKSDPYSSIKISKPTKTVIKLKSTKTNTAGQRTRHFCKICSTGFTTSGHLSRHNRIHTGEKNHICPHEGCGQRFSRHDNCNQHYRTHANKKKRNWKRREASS
# Test: PBM E-score (8-mer binding enrichment) (E-score (-0.5 to 0.5)); higher = stronger / more preferred TF binding
# Settings: protein concentration: 100 nM; construct: GST-full length
# How it was run: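 Detection of bound protein used fluorescent anti-GST, with scans normalised by masliner. The proteins were GST-tagged yeast transcription factors applied at about 100-200 nM to universal all-10-mer Agilent arrays made double-stranded by primer extension. Each ungapped eight-base word, pooled with its reverse complement, was scored with an E-score from the Universal PBM Analysis Suite.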
row,Sequence,PBM E-score
1,AGCCCCGG,-0.0519
2,GGCCTCAA,0.105
3,GATCAACA,-0.0582
4,CGTGAGAC,0.0534
5,CACGAGCA,-0.145
6,AAACCTGG,-0.0117
7,ATCCGCGC,0.116
8,TCCGCAGA,0.0447
9,AATCTCGG,0.0273
10,GACCTCTA,-0.0846
11,CAAGTAGG,-0.0821
12,AAACACGC,0.071
13,GTCATAAA,0.0411
14,ACGTCGCG,-0.0773
15,GACGATCA,-0.0906
16,AACATCGC,0.0173
17,GCTTTGGA,0.12
18,AATTGGAT,0.132
19,CAACTCCA,0.0711
20,TAATAAGA,0.0444
21,CTTATTCA,-0.00255
22,ATTAAAAT,0.174
23,ATCCCTGG,0.302
24,CGGGACTC,-0.143
25,GACGTGGC,-0.099

row,Sequence,PBM E-score
1,CGGAGTAA,-0.018
2,AATAACTA,0.0916
3,CGTCGAGA,0.0768
4,AGAAATAT,0.126
5,AAAACATT,-0.0265
6,CCATTAAG,0.0243
7,GCAATGAC,-0.0908
8,TCCCACAA,0.062
9,CGGTAGTC,-0.197
10,ACCAGGCG,-0.171
11,GAAGTCTA,-0.109
12,ATGCAAGA,0.0997
13,AGGATAAT,0.0367
14,AACATCTT,-0.209
15,AGCATCGA,0.0713
16,TGTGCGAA,-0.0723
17,CTGCCCGC,0.214
18,GACCTTTA,-0.0218
19,GCACGGGA,-0.0549
20,GAAGCGTA,0.0412
21,CGGTTATA,-0.0458
22,AACTGGAT,0.124
23,AATCTATC,0.0626
24,ACTGAGGC,0.0289
25,CAGTGCCC,0.0474

row,Sequence,PBM E-score
1,AATACTCC,-0.148
2,CTTATCCC,-0.119
3,GAACTAAC,0.0869
4,CGTCGGGC,-0.203
5,CGATAACC,0.0568
6,GCCTCTAA,-0.113
7,CCTTTCCA,0.00451
8,ATCCATCA,0.092
9,GGTCAGAC,-0.087
10,ATTTTGTC,0.0375
11,GGCGAGAC,-0.0299
12,AAGTTATT,0.135
13,CAGTCGAA,-0.0564
14,GATCTGAA,-0.0945
15,GGCCATCA,-0.0252
16,ACCTTCAT,0.0652
17,ACGCTAAA,-0.0161
18,CCTAGGAA,-0.0506
19,ATAAAGTG,0.123
20,CTGAAGCC,-0.22
21,AATGGAAT,0.241
22,CCTTTACG,0.0945
23,GATGTCTA,-0.156
24,CAGTACGC,0.102
25,CTGACTCA,-0.112

row,Sequence,PBM E-score
1,ATAGTTTC,-0.0142
2,ACTAGATA,0.15
3,CAATGTGG,0.0785
4,CTTCATTA,0.164
5,TAGCTTCA,0.0524
6,CGACATGA,0.0175
7,GGACCAAC,-0.0462
8,AGCTGACG,-0.0553
9,ATATTCTA,0.099
10,AAATGGGC,-0.0283
11,CGAGGTAC,-0.162
12,TAGTGATA,0.00245
13,CTACTTCC,-0.00085
14,CATATGTA,0.0964
15,CTGTCCTC,-0.0826
16,ACGCTACG,-0.112
17,GACGTAGC,-0.192
18,CGTAAACA,0.187
19,GTATGTGA,-0.167
20,GTCAGGTA,-0.118
21,ATAGAGCA,0.148
22,ACACCCAG,-0.149
23,TCCCTTCA,-0.0593
24,AACATCGG,-0.137
25,CTATCCAA,-0.189

row,Sequence,PBM E-score
1,AATAAGGG,0.162
2,AGCATCTA,-0.0796
3,GGCACCTA,-0.035
4,CACATCGG,-0.142
5,AGTCGAGC,-0.156
6,AGTAATTC,0.117
7,AAACATTG,-0.0317
8,AGAGAATA,0.174
9,GCAGCCTA,-0.17
10,GTGCATTA,0.126
11,TGTATACA,0.18
12,CGAATCCA,0.0739
13,ATTTAAGC,0.0971
14,ATGAAGCA,-0.00828
15,ACTTTGAC,-0.0936
16,AACCCAAC,0.113
17,ACTAGAAA,-0.105
18,GATTCCTA,0.101
19,TAGTCCCA,-0.0666
20,CATTAGCG,0.0287
21,AGCGCATG,-0.0295
22,AGAGATGA,0.00238
23,ATGCTCAG,0.0987
24,AGCAGAAA,0.0272
25,GTTCATGA,0.222

row,Sequence,PBM E-score
1,CTCAATAC,0.131
2,CATCAACC,0.0872
3,CATTTTGC,0.116
4,GGTCAACA,0.112
5,AGGGATAC,0.115
6,AACCAGCG,0.0992
7,CCTTTTCC,-0.0827
8,GTTGCTGA,0.0921
9,ACAAACAC,0.144
10,AAACGAAC,0.119
11,CGCTACCA,-0.0584
12,GGAGATGA,0.0613
13,TACGAGCA,-0.201
14,GGTGATGA,0.155
15,CAACACCA,0.00927
16,CAATGAGC,0.102
17,AAGTCATT,-0.0544
18,AGAGGTAG,-0.09
19,TATAAAAA,0.164
20,ACCGCTAC,-0.201
21,AGTCGCCC,-0.148
22,CGAGCCCA,0.0239
23,CGGCGTCC,-0.0357
24,AGTAGTTA,0.0579
25,GTAAAACA,0.0875

# A stretch from further up, as a working copy:
row,Sequence,PBM E-score
9,GGTCAGAC,-0.087
10,ATTTTGTC,0.0375
11,GGCGAGAC,-0.0299

# Further entries

row,Sequence,PBM E-score
1,CTCGAGAA,-0.069
2,ATGCTAGG,-0.0599
3,CGCTATGA,0.11
4,AGTCGGAT,0.139
5,CGGCATCA,-0.144
6,GCTGGTAA,-0.145
7,ATAAGGAT,0.15
8,CGTAATGA,-0.038
9,CTTGAAGA,-0.153
10,ACAGCTTA,0.0742
11,ACTATACA,0.0287
12,TAATATGA,0.0376
13,CGAGGGTA,0.0487
14,TGATCCAA,0.197
15,AAGTGGCC,0.0419
16,ATTGCGTA,0.145
17,ATAGCTAT,-0.047
18,CATCCGCG,0.0619
19,AATGACGT,-0.0446
20,AAGTACTA,0.13
21,GTCTGACA,0.0221
22,ACGCGTCA,0.0474
23,GAATCCGC,-0.0144
24,ACCCAGGG,0.0967
25,TAACATCA,0.043

row,Sequence,PBM E-score
1,CCGACCGC,-0.0719
2,TAGGACGA,-0.122
3,AGACCGTG,-0.0909
4,ACGTGAGC,-0.0241
5,AATCTACT,0.117
6,GCATCGAA,-0.0124
7,GCATCACA,-0.0237
8,GTCTTGCA,0.0101
9,AGCTCGCC,0.108
10,ATTCGTGG,0.133
11,CTGCGGGA,-0.122
12,GCCTACAC,-0.16
13,CGAAACAG,0.0953
14,TGCGTGAA,-0.0489
15,AAGGGGTA,-0.00105
16,AACACCGA,-0.0363
17,GCTACCAC,-0.164
18,AGGTGCAT,-0.0173
19,CAGCTGTC,0.218
20,AGACATGC,-0.289
21,AACTCTCC,-0.0395
22,AAACTCAT,0.108
23,AGCCACAC,0.00029
24,CTGATACA,-0.0801
25,CGACTACG,-0.152

row,Sequence,PBM E-score
1,CGCAGATC,-0.0771
2,CGAGTCAA,-0.168
3,TAAACTCA,0.117
4,CGGCGCCG,0.25
5,AAGCCTAA,-0.0846
6,ATGCATGA,0.0186
7,CTAGACTC,-0.296
8,CAATTGTG,0.124
9,AAGTCTCC,-0.279
10,CATGAGCA,-0.0345
11,ATACCGTC,0.112
12,CAATTGAA,-0.0796
13,GTTATGAA,0.0794
14,ACGTGCAG,0.0146
15,CCGTTGCA,-0.0568
16,CGCTGAAG,-0.109
17,ACCTACCG,-0.0788
18,GAGTCATC,-0.00226
19,AACTCCTT,0.00645

# Quoted from the listing.
# Under PBM E-score, CCGTTGCA is entered as -0.0568
# Under PBM E-score, ATACCGTC is entered as 0.112
# Under PBM E-score, AAGTCTCC is entered as -0.279

# Quoted at random: four entries already listed, in no set order.
row,Sequence,PBM E-score
20,CTGAAGCC,-0.22
19,GCACGGGA,-0.0549
17,ATAGCTAT,-0.047
20,GAAGCGTA,0.0412
